From patent publication US4288595A, “7-(Substituted)-7H-pyrrolo[3,2-f]quinazoline-1,3-diamines” (priority 1980, dated 1981)
At least one read-out could not be matched to a standard name with certainty.

tested on: Plasmodium berghei KBG 173; experiment: Blood schizonticidal antimalarial test in mice infected with Plasmodium berghei; details: mice cured/treated at the Min. Curing Dose, s.c.; cured = survivors at 60 days
Protocol: Test animals weigh from 18 to 22 grams but weight variations in any given experimental or control group are confined to 2-3 grams. All animals in any given test are approximately of the same age. Animals on test are housed in metal-topped plastic cages, given a standard laboratory diet and water ad libitum.
Test animals receive an intraperitoneal injection of 0.5 ml. of 1:100 dilution of heparinized heart's blood with a minimum of 90% parasitized cells (4×10^7 cells), drawn from donor mice infected one week earlier with Plasmodium berghei. The donor strain is maintained by weekly passages in separate groups of mice inoculated with a 0.5 ml. of 1:500 dilution of heparinized heart's blood.
Test compounds are administered after dissolution or suspension in peanut oil. A single dose is given subcutaneously 72 hours after the mice are infected with Plasmodium berghei. […] Since treatment is withheld for three days to permit the infection to become well established and death occurs in untreated controls within 6-8 days, it is felt that this system presents a candidate compound with the maximum challenge. In order to check factors such as changes in the infectivity of Plasmodium berghei or in the susceptibility of the host or to detect technical errors, a group of infected animals treated with pyrimethamine at dose levels producing definite increases in survival time is included in a positive control in every experiment.
In each experiment test compounds are administered in graded dosages. […] Deaths prior to the sixth day, when untreated controls begin to die, are regarded as nonparasitic and become the basis for toxicity evaluations. Treated animals are kept under observation for 60 days. Survivors at the end of this period of time are considered as cured. In calculating mean survival time, toxic deaths and 60-day survivors are not included.

Row | Compound | Cure/Treat at Min. Curing Dose
1 | Nc1nc(N)c2c(ccc3c2ccn3S(=O)(=O)c2ccc([N+](=O)[O-])cc2)n1 [Example 3] | 1/5
2 | Nc1nc(N)c2c(ccc3c2ccn3S(=O)(=O)c2ccc3ccccc3c2)n1 [Example 4] | 4/5
3 | Nc1nc(N)c2c(ccc3c2ccn3S(=O)(=O)c2ccccc2)n1 [Example 10] | 1/5
